# Data: article doi:10.1101/559641
# Amino acid sequences for entries named in this document (tags omitted).
# UniProt Q64321: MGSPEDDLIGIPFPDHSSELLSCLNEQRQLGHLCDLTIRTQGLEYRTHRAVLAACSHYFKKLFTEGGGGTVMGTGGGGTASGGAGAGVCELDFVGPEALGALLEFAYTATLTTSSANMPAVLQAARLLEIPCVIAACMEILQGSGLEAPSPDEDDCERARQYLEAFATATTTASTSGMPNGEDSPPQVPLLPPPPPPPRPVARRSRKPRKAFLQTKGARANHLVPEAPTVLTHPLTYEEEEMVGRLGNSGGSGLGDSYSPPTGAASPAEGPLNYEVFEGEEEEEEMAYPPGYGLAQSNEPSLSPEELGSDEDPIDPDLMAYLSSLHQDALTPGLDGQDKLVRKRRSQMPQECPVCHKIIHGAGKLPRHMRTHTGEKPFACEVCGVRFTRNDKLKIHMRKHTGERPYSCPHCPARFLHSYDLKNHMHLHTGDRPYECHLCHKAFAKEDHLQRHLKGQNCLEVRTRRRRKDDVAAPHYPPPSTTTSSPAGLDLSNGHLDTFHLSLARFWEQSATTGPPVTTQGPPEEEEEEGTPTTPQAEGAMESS
# UniProt Q7TQC5: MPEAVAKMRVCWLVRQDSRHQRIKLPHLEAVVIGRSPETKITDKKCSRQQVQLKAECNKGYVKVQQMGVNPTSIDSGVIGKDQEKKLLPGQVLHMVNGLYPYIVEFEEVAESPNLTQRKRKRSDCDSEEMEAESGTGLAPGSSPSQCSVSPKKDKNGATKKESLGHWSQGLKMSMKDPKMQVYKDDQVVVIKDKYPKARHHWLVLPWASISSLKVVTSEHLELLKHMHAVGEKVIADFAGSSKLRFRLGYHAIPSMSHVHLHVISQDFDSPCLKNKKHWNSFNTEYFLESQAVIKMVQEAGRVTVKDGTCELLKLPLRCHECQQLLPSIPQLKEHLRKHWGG
# UniProt P27641: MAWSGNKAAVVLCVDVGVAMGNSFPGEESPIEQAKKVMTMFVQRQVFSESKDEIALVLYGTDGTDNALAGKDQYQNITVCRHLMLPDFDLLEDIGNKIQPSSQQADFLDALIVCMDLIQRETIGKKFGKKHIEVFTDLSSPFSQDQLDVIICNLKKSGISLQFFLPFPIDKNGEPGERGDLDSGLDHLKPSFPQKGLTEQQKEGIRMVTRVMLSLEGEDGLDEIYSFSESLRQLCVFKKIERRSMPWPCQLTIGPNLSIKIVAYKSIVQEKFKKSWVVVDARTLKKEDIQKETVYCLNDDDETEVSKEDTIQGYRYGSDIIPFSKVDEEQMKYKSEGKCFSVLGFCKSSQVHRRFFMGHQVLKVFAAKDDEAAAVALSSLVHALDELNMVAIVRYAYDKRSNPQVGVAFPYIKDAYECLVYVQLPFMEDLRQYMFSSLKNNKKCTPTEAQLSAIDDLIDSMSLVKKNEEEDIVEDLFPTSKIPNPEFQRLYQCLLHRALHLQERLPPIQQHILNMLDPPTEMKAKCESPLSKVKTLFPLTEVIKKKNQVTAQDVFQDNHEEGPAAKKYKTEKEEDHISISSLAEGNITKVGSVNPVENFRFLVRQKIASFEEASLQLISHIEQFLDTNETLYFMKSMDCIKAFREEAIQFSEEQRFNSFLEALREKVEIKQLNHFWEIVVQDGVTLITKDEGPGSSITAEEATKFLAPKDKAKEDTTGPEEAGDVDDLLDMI
# UniProt O88379: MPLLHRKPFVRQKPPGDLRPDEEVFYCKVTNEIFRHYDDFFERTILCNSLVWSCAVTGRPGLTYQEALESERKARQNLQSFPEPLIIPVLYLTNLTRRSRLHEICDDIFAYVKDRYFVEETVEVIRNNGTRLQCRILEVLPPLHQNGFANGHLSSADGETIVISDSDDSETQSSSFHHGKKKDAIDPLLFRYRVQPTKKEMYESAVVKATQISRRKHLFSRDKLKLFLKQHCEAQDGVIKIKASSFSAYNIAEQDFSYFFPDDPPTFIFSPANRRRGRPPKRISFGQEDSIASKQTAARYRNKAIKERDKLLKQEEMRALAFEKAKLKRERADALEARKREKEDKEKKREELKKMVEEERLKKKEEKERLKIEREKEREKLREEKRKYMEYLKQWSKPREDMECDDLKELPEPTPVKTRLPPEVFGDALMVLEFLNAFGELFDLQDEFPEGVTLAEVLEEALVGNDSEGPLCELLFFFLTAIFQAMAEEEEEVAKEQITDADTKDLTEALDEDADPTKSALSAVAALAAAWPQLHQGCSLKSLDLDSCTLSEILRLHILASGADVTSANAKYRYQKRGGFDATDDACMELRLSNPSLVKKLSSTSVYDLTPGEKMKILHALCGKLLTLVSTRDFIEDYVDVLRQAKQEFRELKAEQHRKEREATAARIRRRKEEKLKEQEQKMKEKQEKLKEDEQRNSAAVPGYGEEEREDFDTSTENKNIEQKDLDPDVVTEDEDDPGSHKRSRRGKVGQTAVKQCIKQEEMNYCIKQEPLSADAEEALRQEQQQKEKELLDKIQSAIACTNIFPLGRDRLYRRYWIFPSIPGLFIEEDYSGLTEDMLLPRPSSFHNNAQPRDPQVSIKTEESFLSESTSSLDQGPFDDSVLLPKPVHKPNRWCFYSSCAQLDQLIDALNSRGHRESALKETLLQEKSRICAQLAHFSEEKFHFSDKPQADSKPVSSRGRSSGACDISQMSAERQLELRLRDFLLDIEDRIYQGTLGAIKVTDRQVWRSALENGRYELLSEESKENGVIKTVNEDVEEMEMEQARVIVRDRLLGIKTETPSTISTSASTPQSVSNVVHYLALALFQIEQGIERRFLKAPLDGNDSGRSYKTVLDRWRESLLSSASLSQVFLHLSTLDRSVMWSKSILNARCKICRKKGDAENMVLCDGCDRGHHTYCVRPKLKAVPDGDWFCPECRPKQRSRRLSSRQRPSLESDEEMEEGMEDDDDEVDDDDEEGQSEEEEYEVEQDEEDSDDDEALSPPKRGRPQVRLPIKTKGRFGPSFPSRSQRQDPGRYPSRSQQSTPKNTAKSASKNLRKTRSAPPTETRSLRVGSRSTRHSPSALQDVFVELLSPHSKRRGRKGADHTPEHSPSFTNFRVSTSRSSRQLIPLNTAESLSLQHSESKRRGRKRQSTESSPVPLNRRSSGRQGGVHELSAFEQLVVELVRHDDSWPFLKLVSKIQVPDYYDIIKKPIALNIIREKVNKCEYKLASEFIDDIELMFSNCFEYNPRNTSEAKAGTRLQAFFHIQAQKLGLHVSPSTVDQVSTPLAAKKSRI
# UniProt Q8VEE4: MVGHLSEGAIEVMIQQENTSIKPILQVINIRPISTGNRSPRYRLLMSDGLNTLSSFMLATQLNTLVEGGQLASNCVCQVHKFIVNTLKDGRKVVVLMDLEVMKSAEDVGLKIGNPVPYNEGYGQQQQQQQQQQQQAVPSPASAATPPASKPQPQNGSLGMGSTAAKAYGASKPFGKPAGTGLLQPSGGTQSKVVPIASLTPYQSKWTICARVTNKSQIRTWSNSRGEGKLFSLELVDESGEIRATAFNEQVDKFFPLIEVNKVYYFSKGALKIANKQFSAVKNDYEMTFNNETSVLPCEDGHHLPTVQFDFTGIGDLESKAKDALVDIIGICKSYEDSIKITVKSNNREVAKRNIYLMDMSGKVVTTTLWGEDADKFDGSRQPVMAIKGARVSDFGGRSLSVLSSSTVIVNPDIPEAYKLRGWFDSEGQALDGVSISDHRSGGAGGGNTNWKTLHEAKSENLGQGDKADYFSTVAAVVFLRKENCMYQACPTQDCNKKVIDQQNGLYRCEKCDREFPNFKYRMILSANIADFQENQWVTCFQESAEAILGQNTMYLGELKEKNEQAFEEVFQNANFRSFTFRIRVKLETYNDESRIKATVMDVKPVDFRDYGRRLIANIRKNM
# UniProt Q8VHR5: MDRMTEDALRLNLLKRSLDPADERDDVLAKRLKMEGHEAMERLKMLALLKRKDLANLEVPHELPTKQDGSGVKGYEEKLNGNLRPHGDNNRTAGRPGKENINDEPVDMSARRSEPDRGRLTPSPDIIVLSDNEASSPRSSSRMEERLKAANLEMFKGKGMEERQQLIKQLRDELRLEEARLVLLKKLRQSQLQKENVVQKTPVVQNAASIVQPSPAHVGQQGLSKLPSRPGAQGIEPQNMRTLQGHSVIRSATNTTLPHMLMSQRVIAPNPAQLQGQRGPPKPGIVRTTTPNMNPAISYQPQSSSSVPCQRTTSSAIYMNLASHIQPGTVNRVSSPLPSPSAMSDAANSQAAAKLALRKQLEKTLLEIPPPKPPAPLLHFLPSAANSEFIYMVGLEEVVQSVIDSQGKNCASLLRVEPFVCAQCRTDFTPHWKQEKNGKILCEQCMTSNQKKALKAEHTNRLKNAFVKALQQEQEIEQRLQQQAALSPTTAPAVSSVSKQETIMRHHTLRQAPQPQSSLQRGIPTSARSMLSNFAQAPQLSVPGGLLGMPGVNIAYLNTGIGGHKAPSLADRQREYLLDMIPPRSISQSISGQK
# UniProt Q8CHY6: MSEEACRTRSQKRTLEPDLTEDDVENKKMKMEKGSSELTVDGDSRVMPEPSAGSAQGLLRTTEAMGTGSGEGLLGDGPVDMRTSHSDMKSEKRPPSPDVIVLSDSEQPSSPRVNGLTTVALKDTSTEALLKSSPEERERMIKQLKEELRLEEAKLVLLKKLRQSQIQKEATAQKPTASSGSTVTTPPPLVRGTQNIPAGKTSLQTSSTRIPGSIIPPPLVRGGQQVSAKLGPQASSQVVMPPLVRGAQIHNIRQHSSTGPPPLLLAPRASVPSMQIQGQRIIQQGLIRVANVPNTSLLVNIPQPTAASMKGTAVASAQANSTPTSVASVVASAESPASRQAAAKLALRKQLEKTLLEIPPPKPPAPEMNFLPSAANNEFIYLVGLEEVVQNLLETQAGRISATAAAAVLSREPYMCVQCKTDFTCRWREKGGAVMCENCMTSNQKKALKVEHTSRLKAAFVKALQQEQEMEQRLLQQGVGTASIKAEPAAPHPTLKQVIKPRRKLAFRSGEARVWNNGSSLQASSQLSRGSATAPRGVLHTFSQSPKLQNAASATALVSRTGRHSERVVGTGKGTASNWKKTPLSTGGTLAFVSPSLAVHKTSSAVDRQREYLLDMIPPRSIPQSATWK
# UniProt Q9JLV6: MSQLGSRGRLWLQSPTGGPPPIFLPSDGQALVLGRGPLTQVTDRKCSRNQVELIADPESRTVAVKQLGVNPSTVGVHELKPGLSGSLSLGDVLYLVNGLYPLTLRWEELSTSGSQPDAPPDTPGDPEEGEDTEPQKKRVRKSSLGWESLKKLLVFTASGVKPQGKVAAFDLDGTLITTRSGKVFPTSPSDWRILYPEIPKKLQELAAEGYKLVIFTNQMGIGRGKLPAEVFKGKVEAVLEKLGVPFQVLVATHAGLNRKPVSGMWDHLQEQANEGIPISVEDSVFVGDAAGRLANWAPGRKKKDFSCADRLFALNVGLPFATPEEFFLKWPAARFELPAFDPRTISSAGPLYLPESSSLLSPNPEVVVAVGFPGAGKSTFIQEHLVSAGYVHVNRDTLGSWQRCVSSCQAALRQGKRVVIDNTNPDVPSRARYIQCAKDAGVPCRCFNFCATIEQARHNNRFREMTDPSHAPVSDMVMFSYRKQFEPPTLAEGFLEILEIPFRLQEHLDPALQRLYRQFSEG
# UniProt Q9CQ71: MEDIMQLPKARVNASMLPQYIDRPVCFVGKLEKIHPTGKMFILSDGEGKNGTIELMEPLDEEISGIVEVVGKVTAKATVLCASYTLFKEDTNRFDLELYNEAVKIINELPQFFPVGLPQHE
# UniProt O09106: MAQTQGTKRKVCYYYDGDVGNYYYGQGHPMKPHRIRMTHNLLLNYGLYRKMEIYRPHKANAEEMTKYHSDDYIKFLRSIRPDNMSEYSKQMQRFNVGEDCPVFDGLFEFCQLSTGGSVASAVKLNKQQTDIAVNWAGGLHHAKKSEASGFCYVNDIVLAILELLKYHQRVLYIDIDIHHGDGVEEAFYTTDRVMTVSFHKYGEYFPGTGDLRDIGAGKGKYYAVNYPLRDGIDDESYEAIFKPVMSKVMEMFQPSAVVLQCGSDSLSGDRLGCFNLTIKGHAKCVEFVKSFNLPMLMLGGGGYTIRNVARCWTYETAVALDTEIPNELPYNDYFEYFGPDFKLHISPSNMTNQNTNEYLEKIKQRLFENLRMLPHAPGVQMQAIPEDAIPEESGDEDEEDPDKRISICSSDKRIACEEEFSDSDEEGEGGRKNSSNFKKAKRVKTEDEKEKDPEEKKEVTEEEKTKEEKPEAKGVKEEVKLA
# UniProt P60122: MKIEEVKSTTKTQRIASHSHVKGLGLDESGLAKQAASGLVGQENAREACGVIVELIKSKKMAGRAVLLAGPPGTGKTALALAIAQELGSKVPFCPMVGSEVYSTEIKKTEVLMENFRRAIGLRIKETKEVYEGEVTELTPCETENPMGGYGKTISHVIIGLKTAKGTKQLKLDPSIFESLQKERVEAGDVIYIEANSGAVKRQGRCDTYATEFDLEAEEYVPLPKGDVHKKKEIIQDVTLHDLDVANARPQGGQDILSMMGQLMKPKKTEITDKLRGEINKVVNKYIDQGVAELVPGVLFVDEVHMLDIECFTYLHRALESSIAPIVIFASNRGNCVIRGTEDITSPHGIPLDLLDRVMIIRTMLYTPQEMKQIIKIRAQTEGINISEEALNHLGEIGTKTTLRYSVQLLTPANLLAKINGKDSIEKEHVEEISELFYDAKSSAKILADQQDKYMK
# Biological target: N-terminal 3X-FLAG-tagged vertebrate GAF (vGAF/ThPOK/ZBTB7B), expressed in C2C12 myoblast cells (UniProt Q64321)
# Assay: affinity purification with mass spectrometry
row,Molecule,binding
1,XRCC1 (from UniProt Q60596 1-631),binds
2,HDAC2 (from UniProt P70288 1-488),binds
3,SNF2H (from UniProt Q91ZW3 1-1051),binds
4,Aprataxin (from UniProt Q7TQC5 1-342),binds
5,"CBX5 (endogenous, C2C12) (from UniProt Q61686 1-191)",binds
6,Mi-2beta/CHD4 (from UniProt Q6PDQ2 1-1915),binds
7,RBMX (from UniProt Q9WV02 1-391),binds
8,ARID1A (from UniProt A2BH40 1-2283),binds
9,Ku80 (from UniProt P27641 1-732),binds
10,ZBTB7A/LRF (from UniProt O88939 1-569),binds
11,ATR (ATM- and Rad3-Related) (from UniProt Q9JKK8 1-2635),binds
12,Ku60 (from UniProt P23475 1-608),binds
13,BAZ1A (from UniProt O88379 1-1555),binds
14,"p65 (endogenous, C2C12) (from UniProt Q04207 1-549)",binds
15,PRPF19 (from UniProt Q99KP6 1-504),binds
16,RPA70 (from UniProt Q8VEE4 1-623),binds
17,p66-beta (from UniProt Q8VHR5 1-594),binds
18,p66-alpha (from UniProt Q8CHY6 1-629),binds
19,PNKP (from UniProt Q9JLV6 1-522),binds
20,RPA14 (from UniProt Q9CQ71 1-121),binds
21,"HDAC1 (endogenous, C2C12) (from UniProt O09106 1-482)",binds
22,RPA32 (from UniProt Q62193 1-270),binds
23,RUVBL1 (from UniProt P60122 1-456),binds

# Biological target: N-terminal 3X-FLAG-tagged vertebrate GAF (vGAF/ThPOK/ZBTB7B), expressed in C2C12 myoblast cells (UniProt Q64321)
# Assay: affinity purification with mass spectrometry
# Remark: another data set of the same source
row,Molecule,binding
1,"DOC-1 (protein, UniProt O35207 1-114) MSYKPNLTAHMPAAALNAGSVHSPSTSMATSSQYRQLLSDYGPPSLGYTQGTGNSQVPQSKYAELLAIIEELGKEIRPTYAGSKSAMERLKRGIIHARSLVRECLAETERNARS",binds
2,"ATRIP (protein, UniProt Q8BMG1 1-785) MAGTPAPNSHRKQSGGLEPFPGLSRSIENPPSKRARSFSETTVPDPEDPFGEHAEFTADDLEELDILASQALSQCPVAPRNLSSAHKVRRLDGLPNSPIRKSREDIPVKDNFELEVLQIQYKELKEKLKAMEEEILIKNGEIKILRDSLRQTESVLEEQKRSHFLLEQEKTQALSEKEKEFSRKLQSLQSELQFKDAEMNELRTKSQSNGRTNKPAAPSVSHVSPRKGSSVVLKSEACSPHVGKTTFPTKESFSANTPLFHPCQTEAGHRFLVGQEVSDNKNHSLGGSLMKQDVQQRILADGWMQRKDAQGSILINLLLKQPLVPGSSLGLCHLLSSCPEVPTGTLLQPPGLSTLPGTSGLRTISSSDGPFSPSALREAQNLAFTGLNLVARTESSHDGDMAGRRVFPLHQLPGAVHLLPLVQFFVGLHCQALQDLAPAKKSGVPGDSATHTSCMSSGVEASPEDSIHGLESFSVASLSVLQNLVCHSGAVVCLLLSGMGTEAAAREGNLVQTCADTTSASREDAHDQDQHPLLKMLLQLMASSSAASGHFQASVLGLCLKVLVKLAENASSDLLPRFSCVFPVLPQCLGSALPLPCVLLAVELLSVLLDHDSLAWQLCSHPEGCLLLRLYMYITSRPDRTASETQWLQLEQEVVWLLAKLSVQSPAPAGIGSDCHCNVEAVRALTVMLHRQWLTVRRAGGPRTHQQKQTIRCLRDTVLLLHSLSQKDKLFTVHCVEVLHQYDQVMPGVSMLIRALPDVTDCEEAALDDLCAAETDLEDSEMDCN",binds
3,"LAP2-beta (protein, UniProt Q61029 1-452) MPEFLEDPSVLTKDKLKSELVANNVTLPAGEQRKDVYVQLYLQHLTARNRPPLAAGANSKGPPDFSSDEEREPTPVLGSGASVGRGRGAVGRKATKKTDKPRLEDKDDLDVTELSNEELLDQLVRYGVNPGPIVGTTRKLYEKKLLKLREQGTESRSSTPLPTVSSSAENTRQNGSNDSDRYSDNDEDSKIELKLEKREPLKGRAKTPVTLKQRRTEHNQSYSQAGVTETEWTSGSSTGGPLQALTRESTRGSRRTPRKRVETSQHFRIDGAVISESTPIAETIKASSNESLVANRLTGNFKHASSILPITEFSDITRRTPKKPLTRAEVGEKTEERRVDRDILKEMFPYEASTPTGISASCRRPIKGAAGRPLELSDFRMEESFSSKYVPKYAPLADVKSEKTKKRRSVPMWIKMLLFALVAVFLFLVYQAMETNQGNPFTNFLQDTKISN",binds
4,"APLF (protein, UniProt Q9D842 1-499) MPSDFFLQPLDGGPRVPVGPGQTVIGRGPLLGITDKRVSRRHAILEVVDSQLRIKPIHRNPCFYQSSEKSQHSPMETQVWSQLHPGDSFSLLLDKYAFRVFSAESEVEMECTLRNSQMLDEDDILSEMQKSPVVNLPDKTTGASQLQGSPEITKTKCPTIDPMSSSGECRAFSEHQPRPTQRKRILPAWMLAESLSDQSLSTPAEGGDKDVIQRSGKAGTCEDRTPGNTSWHGKKRLSPSGNSKSVSAEQDPGKKCRKADQEGPGVSSENVPESSSSNIVKDPDVDIVKTNKQKDGILIEELGEVSKHKAATKPTTNEEGESCARVQSKSPPEKSQGCHPESSSAPSSPDALHTDTADPVLGCSEESKVRRTACMYGANCYRRNPLHFQHFSHPGDSDYGEVHGTDEGVIGDRPECPYGASCYRKNPQHKMEYRHSALPARVALDEDDDDVGQPSDDEDEEDYEPTDEDSDWHPGKDDEEQEDVDELLKEAKSSLHLKH",binds
5,"ligase3 (protein, UniProt P97386 1-1015) MTLAFKILFPRNLCALGRKELCLFPEQNRWAAISQFSQWSETNLLGGCCLLQRRKPVLALQRGHLRPRATHLTFWPGSHVGLCTGPCAMAEQRFCVDYAKRGTAGCKKCKEKIVKGVCRIGKVVPNPFSESGGDMKEWYHIKCMFEKLERARATTKKIEDLTELEGWEELEDNEKEQISQHIADLSSKAAATPKKKAAVQAKLTTTGQVTSPVKGASFITSTNPRKFSGFSAAKPNNSEQAPSSPAPGTSLSASKCDPKHKDCLLREFRKLCAMVAENPSYNTKTQIIHDFLQKGSTGGFSDGFHGDVYLTVKLLLPGVIKSVYNLNDKQIVKLFSRIFNCNPDDMARDLEQGDVSETIRIFFEQSKSFPPAAKSLLTIQEVDAFLLHLSKLTKEDEQQQALQDIASRCTANDLKCIIRLIKHDLKMNSGAKHVLDALDPNAYEAFKASRNLQDVVERVLHNEQEVEKDPGRRRALRVQASLMTPVQPMLAEACKSIEYAMKKCPNGMFSEIKYDGERVQVHKKGDHFSYFSRSLKPVLPHKVAHFKDYIPKAFPGGQSMILDSEVLLIDNNTGKPLPFGTLGVHKKAAFQDANVCLFVFDCIYFNDVSLMDRPLCERRKFLHDNMVEIRNRIMFSEMKQVTKASDLADMINRVIREGLEGLVLKDVKGTYEPGKRHWLKVKKDYLNEGAMADTADLVVLGAFYGQGSKGGMMSIFLMGCYDPDSQKWCTVTKCAGGHDDATLARLQKELVMVKISKDPSKIPSWLKINKIYYPDFIVPDPKKAAVWEITGAEFSRSEAHTADGISIRFPRCTRIRDDKDWKSATNLPQLKELYQLSKDKADFAVVAGDEASPTTGGSSGENEGTAGSAGPCKGPPSKSSASAKTTEQKLNSPSSRGGIKPIPKHSPMKPGEKLAVKSSPVKVGMKRKATDETPCLKKVLLDVFTGVRLYLPPSTPDFKRLKRYFVAFDGDLVQEFDMGSATHVLGNREKNTDAQLVSSEWIWACIRKRRLIAPC",binds
6,"RBM14 (endogenous, C2C12) (protein, UniProt Q8C2Q3 1-669) MKIFVGNVDGADTTPEELAALFAPYGTVMSCAVMKQFAFVHMRENAGAVRAIEALHGHELRPGRALVVEMSRPRPLNTWKIFVGNVSAACTSQELRSLFERRGRVIECDVVKDYAFVHMEKEADAKAAIAQLNGKEVKGKRINVELSTKGQKKGPALAIQSGDKTKKPGAGDTAFPGTGGFSATFDYQQAFGNSTGGFDGQARQPTPPFFGRDRSPLRRSPPRASYVAPLTAQPATYRAQPSVSLGAAYRAQPSASLGVGYRTQPMAAQAASYRAQPSVSLGAPYRGQLASPSSQSAAASSLGPYGGVQPSASALSTYGGQAAAASSLNSYGAQGSSLASYGNQPSSYGAQAASSYGVRAAASSYNTQGAASSLGSYGAQAASYGAQSAASSLAYGAQAASYSAQPSASYSAQSAPYAAQQAASYSSQPAAYVAQPATAAAYASQPAAYAAQATTPMAGSYGAQPVVQTQLNSYGAQASIGLSGSYGAQSAAAATGSYGAAAAYGAQPSATLAAPYRTQSSASLAASYAAQQHPQAAASYRGQPGSAYDGTGQPSAAYLSMSQGAVANANSTPPPYERTRLSPPRASYDDPYKKAVAMSKRYGSDRRLAELSDYRRLSESQLSFRRSPTKSSLDYRRLPDAHSDYARYSGSYNDYLRAAQMHSGYQRRM",binds
7,"ZNF281 (protein, UniProt Q99LI5 1-893) MKIGSGFLSGGGGPSSSGGSGSGGSSGSASGGSGGGRRAEMEPTFPQSMVMFNHRLPPVTSFTRPAGTAAPPPQCVLSSSTSAAPAAEPPPPPAPDMTFKKEPAASAAAFPSQRTSWGFLQSLVSIKQEKPADPEEQPSHHHHHHHHYGGLFAGAEERSPGLGGGEGGSHGVIQDLSLLHQHAQQQPAQHHRDVLLSSGSRTDEHGNQEPKQDANVKKAKRPKPESQGIKAKRKPSASSKPLVGEGEGAVLSPSQKPHICDHCSAAFRSSYHLRRHVLIHTGERPFQCSQCSMGFIQKYLLQRHEKIHSREKPFGCDQCSMKFIQKYHMERHKRTHSGEKPYKCDTCQQYFSRTDRLLKHRRTCGEAIAKGAASAEPGSSNHNSMGNLAVLSQGNTSSSRRKSKSKSIAIENKEHKTGKTNESQMSNNINMQSYSVEMPTVSTSGSIIGTGIDELQKRVPKLIFKKGSRKNADKSYLNFVSPLPDVVGQKSLSGKPGGSLGIVSNNSVETISLLQSTSGKQGPISSNYDDAMQFSKKRRYLPTASSNSAFSINVGHMVSQQSVIQSAGVSVLDNEAPLSLIDSSALNAEIKSCHDKSGIPDEVLQSILDQYSGKSETQKEDPFNLTEPRVDLHTSGEHSELVQEENLSPGTQTPSNDKTSMLQEYSKYLQQAFEKSTNAGFTLGHGFQFVSLSSPLHNHTLFPEKQIYTTSPLECGFGQSVTSVLPSSLPKPPFGMLFGSQPGLYLSALDATHQQLTPSQELDDLIDSQKNLETSSAFQSSSQKLTSQKEQQKNLESSTSFQIPSQELASQIDPQKDIEPRTTYQIENFAQAFGSQFKSGSRVPMTFITNSNGEVDHRVRTSVSDFSGYTNMMSDVSEPCSTRVKTPTSQSYR",binds

# No constants are given. Whether binding was seen depends on the method and setting. Binding seen in cells or lysates may run through a third protein. Here binding means that the protein was enriched with, or labelled near, the bait; the list need not be complete.
